{"source": "PubChem BioAssay AID504764 – Drosophila RNAi Screening Center – 2011", "purpose": "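Genes whose knock-down alters Notch-dependent transcription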 (primary screen)", "cell system": "Drosophila Kc167 cells", "reagent": "long dsRNA against Drosophila genes", "timing": "about 5 days (4 days dsRNA, then 24 h after transfection)", "challenge": "transfection of constitutively active membrane-tethered Notch lacking the extracellular domain, read 24 h later", "measured": "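Firefly luciferase from an E(spl)m3 reporter with active Notch, plus control-promoter and uninduced reporter wells for normalisation; unnormalised counts, duplicate wells a and b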", "direction": "induced reporter light, run 1, well a and induced reporter light, run 1, well b: higher = more light from the Notch target reporter with active Notch; control promoter light, run 1, well a and control promoter light, run 1, well b: higher = more light from the viral control promoter (cell number, transfection, viability); uninduced reporter light, run 1, well a: higher = more light from the Notch target reporter without active Notch", "rule for the call": "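Hit if the duplicate-averaged log2 ratio of induced to control-promoter light gives a plate-wise z beyond ±2, or induced to uninduced beyond ±1.8; weak-control or discordant-duplicate wells dropped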", "meaning of the calls": "active = modifier hit (raised or lowered Notch signal); inactive = not a hit", "note": "In all, the deposit lists about 22,000 reagents; below is a random part of those with a known target gene and a result. In the full data, 403 (1.9%) are marked active. 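Unnormalised raw counts per well; ratio z-scores behind the hit calls and whether each hit raises or lowers signal are not deposited.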 Unmarked entries are inactive. No sequences are given here. Not given: the amount of reagent."}
{"gene knocked down": "NaCP60E (Na channel protein 60E)", "DRSC id": "DRSC04307", "induced reporter light, run 1, well a": 2.54e5, "induced reporter light, run 1, well b": 2.19e5, "control promoter light, run 1, well a": 2.00e5, "control promoter light, run 1, well b": 1.87e5, "uninduced reporter light, run 1, well a": 17560}
{"gene knocked down": "kirre (kin of irre)", "DRSC id": "DRSC18785", "induced reporter light, run 1, well a": 96675, "induced reporter light, run 1, well b": 98965, "control promoter light, run 1, well a": 1.64e5, "control promoter light, run 1, well b": 1.21e5, "uninduced reporter light, run 1, well a": 8088}
{"gene knocked down": "Dis3l2 (Dis3 like 3'-5' exoribonuclease 2)", "DRSC id": "DRSC08496", "induced reporter light, run 1, well a": 78870, "induced reporter light, run 1, well b": 70890, "control promoter light, run 1, well a": 1.43e5, "control promoter light, run 1, well b": 1.27e5, "uninduced reporter light, run 1, well a": 7480}
{"gene knocked down": "spel1 (spellchecker1)", "DRSC id": "DRSC03617", "induced reporter light, run 1, well a": 1.57e5, "induced reporter light, run 1, well b": 1.94e5, "control promoter light, run 1, well a": 1.77e5, "control promoter light, run 1, well b": 1.82e5, "uninduced reporter light, run 1, well a": 16275}
{"gene knocked down": "CG32260", "DRSC id": "DRSC08084", "induced reporter light, run 1, well a": 1.44e5, "induced reporter light, run 1, well b": 1.41e5, "control promoter light, run 1, well a": 1.58e5, "control promoter light, run 1, well b": 1.61e5, "uninduced reporter light, run 1, well a": 12425}
{"gene knocked down": "CG14795", "DRSC id": "DRSC18513", "induced reporter light, run 1, well a": 1.10e5, "induced reporter light, run 1, well b": 1.00e5, "control promoter light, run 1, well a": 1.57e5, "control promoter light, run 1, well b": 1.74e5, "uninduced reporter light, run 1, well a": 8045}
{"gene knocked down": "CG1671", "DRSC id": "DRSC06617", "induced reporter light, run 1, well a": 1.29e5, "induced reporter light, run 1, well b": 1.21e5, "control promoter light, run 1, well a": 1.02e5, "control promoter light, run 1, well b": 1.26e5, "uninduced reporter light, run 1, well a": 10430}
{"gene knocked down": "janB (janus B)", "DRSC id": "DRSC16973", "induced reporter light, run 1, well a": 1.13e5, "induced reporter light, run 1, well b": 94635, "control promoter light, run 1, well a": 1.30e5, "control promoter light, run 1, well b": 1.46e5, "uninduced reporter light, run 1, well a": 9235}
{"gene knocked down": "CG5381", "DRSC id": "DRSC02852", "induced reporter light, run 1, well a": 1.33e5, "induced reporter light, run 1, well b": 1.62e5, "control promoter light, run 1, well a": 1.03e5, "control promoter light, run 1, well b": 92380, "uninduced reporter light, run 1, well a": 20000}
{"gene knocked down": "CG9643", "DRSC id": "DRSC00722", "induced reporter light, run 1, well a": 2.46e5, "induced reporter light, run 1, well b": 1.90e5, "control promoter light, run 1, well a": 2.32e5, "control promoter light, run 1, well b": 2.33e5, "uninduced reporter light, run 1, well a": 14665}
{"gene knocked down": "CG1943", "DRSC id": "DRSC12576", "induced reporter light, run 1, well a": 79390, "induced reporter light, run 1, well b": 92670, "control promoter light, run 1, well a": 99330, "control promoter light, run 1, well b": 62530, "uninduced reporter light, run 1, well a": 6020}
{"gene knocked down": "Pepck2 (Phosphoenolpyruvate carboxykinase 2)", "DRSC id": "DRSC06013", "induced reporter light, run 1, well a": 37795, "induced reporter light, run 1, well b": 33250, "control promoter light, run 1, well a": 62465, "control promoter light, run 1, well b": 63045, "uninduced reporter light, run 1, well a": 3940}
